Values quoted from earlier work in patent US20090215733A1, “THERAPY FOR THE PROPHYLAXIS OR TREATMENT OF ADVERSE BODY COMPOSITION CHANGES AND/OR DECREASED MUSCLE STRENGTH AFTER ANDROGEN OR GNRH ANALOGUE INTAKE” (priority 2008, published 2009).
At least one structure is not confirmed: it was looked up by name or label, or the drawing left a doubt.

Test system: LH secretion
Details: inhibitory effect of estradiol compared with testosterone; background statement

With `C[C@]12CC[C@@H]3c4ccc(O)cc4CC[C@H]3[C@@H]1CC[C@@H]2O` [Estradiol, estradiol] as the compound, how does the “effectiveness in suppressing LH secretion relative to testosterone” value read?
Its value is 200 fold.
